The results in this text go back to publication PMC5583178.

This assay has as its target TNF receptor 1 (TNFR1), endogenous human (human (endogenous in HT-29)). Nature of the assay: co-IP; anti-TNFR1 immunoprecipitation from lysates of HT-29 cells (cont-shRNA, RARγ-shRNA-A, TRADD-shRNA) treated with TSZ; immunoblot. In general terms: Immunoblotting shows a protein as a band on a membrane.

No constants are given. Whether binding was seen depends on the method and setting. In cells and extracts the contact can be indirect. Binding can be weak; no strength is given.

B1: TNFR1-associated death domain protein (TRADD), endogenous human (protein, UniProt Q15628 1-312)
chain: MAAGQNGHEEWVGSAYLFVESSLDKVVLSDAYAHPQQKVAVYRALQAALAESGGSPDVLQMLKIHRSDPQLIVQLRFCGRQPCGRFLRAYREGALRAALQRSLAAALAQHSVPLQLELRAGAERLDALLADEERCLSCILAQQPDRLRDEELAELEDALRNLKCGSGARGGDGEVASAPLQPPVPSLSEVKPPPPPPPAQTFLFQGQPVVNRPLSLKDQQTFARSVGLKWRKVGRSLQRGCRALRDPALDSLAYEYEREGLYEQAFQLLRRFVQAEGRRATLQRLVEALEENELTSLAEDLLGLTDPNGGLA
Take B1: the binding entry is “binds”.
